PubChem BioAssay AID652054 (National Center for Advancing Translational Sciences (NCATS), 2013)
The campaign covered roughly 360,000 compounds. About 9,100 (2.5%) were called active. Inconclusive results, whose numbers are uncertain, are shown with a selection of clear calls. Cut-off read from the data, not from the text of the source: active = max response below about -50%; inconclusive = no clear call, values can overlap the other calls; inactive = above that.

Amino acid sequences for entries named in this document (tags omitted).
UniProt P35462, whole entry, looked up: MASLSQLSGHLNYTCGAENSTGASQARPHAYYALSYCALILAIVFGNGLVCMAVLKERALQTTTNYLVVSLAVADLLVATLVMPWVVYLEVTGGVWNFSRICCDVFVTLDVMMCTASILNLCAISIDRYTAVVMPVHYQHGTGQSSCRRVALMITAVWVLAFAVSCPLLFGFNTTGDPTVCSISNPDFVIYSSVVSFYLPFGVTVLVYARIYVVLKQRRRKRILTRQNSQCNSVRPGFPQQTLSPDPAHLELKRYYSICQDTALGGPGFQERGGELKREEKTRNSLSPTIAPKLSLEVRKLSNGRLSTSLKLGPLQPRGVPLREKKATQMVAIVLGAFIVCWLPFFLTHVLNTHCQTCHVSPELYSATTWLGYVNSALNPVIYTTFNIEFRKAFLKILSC

Biological target: D(3) dopamine receptor (Homo sapiens) (UniProt P35462)
Experiment: qHTS of D3 Dopamine Receptor Antagonist: qHTS
Conditions: D3R cells, DiscoveRx beta-arrestin luminescence, antagonist mode; active compounds read low
How it was run: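 Cells plated overnight at 1500 cells/well, then exposed to library compounds with dopamine controls for 90 minutes at 37 degrees C. DiscoveRx reagent added for 30–60 minutes at room temperature; luminescence read, quantitative HTS format.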
% is set by controls: 0 for no effect and ±100 for the full control effect.

Compound | max response, negative = inhibition
COc1ccc(CN2CCCC(C(=O)c3ccc(Cl)cc3)C2)c(O)c1 (stereo not given) | inconclusive: -46%
COC(=O)C1=C(c2ccc(F)cc2OCc2ccccc2)C[C@@H]2CC[C@H]1N2C(=O)NC1CCCCC1 | inconclusive: -42.3%
Cc1cccc(CNCCc2c[nH]c3ccccc23)c1 | inactive: -24.6%
C=CCn1c(O)c(C(C)=NCCN2CCCCC2)c(=O)[nH]c1=O | active: -64.5%
COC(=O)C1=C(c2cccc(OCc3ccccc3)c2)C[C@@H]2CC[C@H]1N2C(=O)NCc1ccc(C(F)(F)F)cc1 | inconclusive: -40.3%
Fc1ccc(C(OCCN2CCCC2)c2ccc(F)cc2)cc1 | active: -61.5%
c1ccc2c3c([nH]c2c1)CNCC3 | inconclusive: -42.4%
CC(C)(C)n1nnnc1C(c1cccc2ccccc12)N1CCC2(CC1)C(=O)NCN2c1ccccc1 (stereo not given) | inactive: 10.2%
O=C1C(=O)c2cccc3cccc1c23 | active: -58.7%
Cc1nonc1OCCNCCNc1ccc([N+](=O)[O-])c2cccnc12 | active: -62.8%
COCCNC(=S)N1Cc2ccccc2-n2nncc2C1 | inconclusive: -35.4%
CCCCn1nnnc1C(C1CC1)N1CCC(n2c(=O)[nH]c3ccccc32)CC1 (stereo not given) | inactive: 4.38%
COc1ccccc1N1CCN(Cc2ccccc2)CC1 | active: -113%
ClC1=CCC2CN(CCN3CCCCC3)CC2C1 (stereo not given) | active: -52.2%
Cc1ccc(CN2CCN(Cc3ccccc3)CC2)cc1 | inconclusive: -49.6%
C[n+]1c(-c2ccccc2)cc(CCCCc2cc(-c3ccccc3)[n+](C)c(-c3ccccc3)c2)cc1-c1ccccc1 | active: -73.5%
CCCc1cc(=O)oc2cc(OCC(=O)N3CCC(C(=O)O)(c4ccccc4)CC3)ccc12 | inconclusive: -37.5%
O=C(CN1CCCCC1)c1ccccc1Cl | inconclusive: -39.9%
Cc1c(C=O)c2ccccc2n1Cc1ccc([N+](=O)[O-])cc1 | inconclusive: -37.1%
CN1CC(C(=O)c2ccccc2)C(c2ccccc2)C1 (stereo not given) | inconclusive: -49.4%
CCOC(=O)[C@]12Cc3cc(C)ccc3[C@H]1N(C1CCCCC1)C(=O)c1cc(OC)ccc12 | active: -64.3%
CCOc1ccc(N2C(=O)/C(=C/c3ccc(C)o3)C(=O)NC2=S)cc1 | inconclusive: -37.9%
Cc1cc(C)c2c(c1)NP(=S)(c1ccccc1)N2 (stereo not given) | inconclusive: -43.8%

Compound | max response, negative = inhibition
COC(=O)C1=C(c2ccc(OCc3ccccc3)cc2)C[C@@H]2CC[C@H]1N2C(=O)NCc1ccc2[nH]ccc2c1 | inactive: 19.7%
Cc1ccc(O)c(C(=O)c2cc(C(=O)NCc3ccccc3)c(=O)n(Cc3ccccc3)c2)c1 | active: -68.6%
O=C(O)Cc1cnc[nH]1 | inconclusive: -48.2%
CN(C)P(=NC(=S)c1cccn1C)(N(C)C)N(C)C | inconclusive: -33.5%
CC(C)=CCN1CC[C@@]2(C)c3cc(O)ccc3CC1C2C (stereo not given in full) | inconclusive: -49.8%
CCCCn1nnnc1C(CCc1ccccc1)N1CCC2(CC1)C(=O)NCN2c1ccccc1 (stereo not given) | inconclusive: -40.2%
CCCN1CCCC(C(=O)c2cc(C)c(OC)c(C)c2)C1 (stereo not given) | inconclusive: -48.1%
CSc1ccccc1C(=O)C1CCCN(Cc2ccn[nH]2)C1 (stereo not given) | inconclusive: -39.6%
COc1cc(OC)c(OC)cc1CNC(C)C(O)c1ccccc1 (stereo not given) | active: -66.6%
Cc1nc(C)c(C(=O)NN=Cc2ccc(N(CCCl)CCCl)cc2)s1 | inconclusive: -34.5%
CCOC(=O)[C@]12Cc3cc(Cl)ccc3[C@H]1N(C1CCCCC1)C(=O)c1cc(OC)ccc12 | active: -123%
c1ccc(C(c2ccccc2)c2ccncc2)cc1 | inconclusive: -35.6%
CCN(CC)CCCN=C(C)c1c(O)n(C2CCCCC2)c(=O)[nH]c1=O | inconclusive: -47.7%
CN(c1ccccc1)c1ccc([N+](=O)[O-])c2nonc12 | inconclusive: -34.7%
CN1CC2CN(Cc3ccccc3)S(=O)(=O)C2C1 (stereo not given) | inconclusive: -46%
CCN(CC)C(=O)c1ccc2c(c1)C1C=CCC1C(C(=O)O)N2 (stereo not given) | inconclusive: -44.6%
CCn1cc(CN2CCCC(C(=O)c3cccc(OC)c3)C2)c(C)n1 (stereo not given) | inactive: -17.6%
CCOC(=O)[C@]12Cc3cc4c(cc3[C@H]1N(Cc1ccccc1)C(=O)c1ccccc12)OCO4 | inconclusive: -42.7%
Cc1ccccc1-n1c(O)c(/C=N/NC(=O)c2ccncc2)c(=O)[nH]c1=O | inconclusive: -37.4%
O=c1[nH]c(=O)n(-c2cccc3ccccc23)c(O)c1C=NCc1ccc2c(c1)OCO2 | active: -63%
CC(=NCCC1=CCCCC1)c1c(O)n(-c2ccccc2)c(=O)[nH]c1=O | inactive: -6.41%
COc1nc2ccccc2nc1N1CCN(C)CC1 | active: -83.4%
COCCn1cc(C(=O)N2CCC3(CC2)OCCO3)c2c3ccccc3n(C)c2c1=O | inactive: 17.7%

Gathered by group, the entries above with a nitro group on carbon
Compound | max response, negative = inhibition
Cc1nonc1OCCNCCNc1ccc([N+](=O)[O-])c2cccnc12 | active: -62.8%
Cc1c(C=O)c2ccccc2n1Cc1ccc([N+](=O)[O-])cc1 | inconclusive: -37.1%
CN(c1ccccc1)c1ccc([N+](=O)[O-])c2nonc12 | inconclusive: -34.7%

Remaining list, next part:

Compound | max response, negative = inhibition
CCOC(=O)N(c1ccccc1)P1(=S)OCCO1 | active: -52%
O=S(=O)(c1ccccc1)N1CC1c1ccccc1 (stereo not given) | inconclusive: -37%
C[C@@H]1O[C@@H](O[C@@H]2C=C3CC[C@@H]4C(CC[C@]5(C)[C@@H](c6ccc(=O)oc6)CC[C@]45O)[C@@]3(C)CC2)[C@H](O)[C@H](O)[C@H]1O (stereo not given in full) | inactive: 113%
COc1ccc(C(c2ccc(OC)cc2)C(Cl)(Cl)Cl)cc1 | inconclusive: -38.2%
COc1ccc2c(c1)C1OCCNC1CC2 (stereo not given) | inconclusive: -39.1%
CN(C)C(=O)O/N=C(\N)COc1ccc(C(C)(C)C)cc1 | inactive: -6.7%
COC(=O)C1=C(c2ccc(F)cc2OCc2ccccc2)C[C@@H]2CC[C@H]1N2C | active: -55.6%
Cc1cc2c(C(F)(F)F)cc(=O)oc2c2c1NCCC2 | inactive: 10.4%
CC(=O)OC1N=C(c2ccccc2)c2ccccc2NC1=O (stereo not given) | active: -50.4%
Fc1ccccc1CNCCc1c[nH]c2ccccc12 | inconclusive: -38.1%
Cc1ccccc1N1C(=O)NC(=O)/C(=C\c2cc(Br)c(N3CCOCC3)o2)C1=O | inconclusive: -37.8%
CC(=O)NCC1=C(c2cccc3ccccc23)C[C@@H]2CC[C@H]1N2Cc1ccco1 | inconclusive: -39.8%
N=c1c2c(n(Cc3ccc(Cl)cc3Cl)c3c1CCC3)CCCC2 | inconclusive: -39.5%
COC(=O)C1=C(c2ccc(F)cc2OCc2ccccc2)C[C@@H]2CC[C@H]1N2C(=O)NCCOc1ccccc1 | inactive: 45%
CC(=O)O/C(=C1\CC2C3CC=C4CC(OC(C)=O)CCC4(C)C3CCC2(C)C1=O)C(F)(F)F (stereo not given) | active: -70.3%
Cc1ccsc1C(=O)C1CCCN(CCO)C1 (stereo not given) | inconclusive: -44.4%
O=C(CCN1CCCCC1)Nc1ccc(Cl)cc1C(=O)c1ccccc1 | inconclusive: -30.6%
O=C1C2CCCN2C(c2cccnc2)N1c1cccc(Cl)c1 (stereo not given) | inconclusive: -49.9%
CC1CCN(CC#CCOc2ccc(Cl)cc2)CC1 | active: -105%
O=c1[nH]c(=O)n(-c2cccc(Cl)c2)c(O)c1C=NCCN1CCCCC1 | inactive: 12.3%
CN1C(=O)C(Cc2cccc3ccccc23)C(=O)N(C)C1=O | inconclusive: -33.8%
O=C(O)c1cc[c]([Hg][Cl])cc1 | active: -64.7%
CC(=O)Nc1cc(C(=O)N2CCC3(CC2)OCCO3)ccc1S(=O)(=O)c1ccc(C)cc1 | inactive: 5.49%

Compound | max response, negative = inhibition
CCOC(=O)[C@]12Cc3ccccc3[C@H]1N(C)C(=O)c1cc(OC)ccc12 | inconclusive: -33.9%
CCOC(=O)C1(CCc2ccccc2)CCN(Cc2cccc3c2OCO3)CC1 | active: -81%
COC(=O)C1=C(c2ccc(OC)c(OC)c2)C[C@@H]2CC[C@H]1N2C(=O)NCc1ccco1 | inconclusive: -30.4%
CN1CCC(OC(=O)Cc2ccccc2)CC1 | inactive: 4.4%
COc1cccc(OC)c1C1=NCC(=O)Nc2c1oc1ccc(Br)cc21 | inconclusive: -49.3%
CC12CCCCC1=[N+]([O-])CN2O (stereo not given) | active: -61.9%
O=C1NC(=O)[C@]2(Cc3ccccc3N3CCN(c4ccccc4)CC32)C(=O)N1Cc1ccccc1 (stereo not given in full) | inconclusive: -35.8%
c1ccc2[nH]c(CCNC3CCCCC3)nc2c1 | active: -52.8%
O=C(O)c1ccc(-[n+]2c(-c3ccccc3)cc(-c3ccccc3)cc2-c2ccccc2)cc1 | inconclusive: -44.7%
CCN(CC)c1ccc(/C=C2\C(=O)NC(=S)N(C)C2=O)o1 | inconclusive: -33.4%
CN1CCc2nc(SCc3ccccc3Br)c(C#N)cc2C1 | active: -80.5%
C1=C(CCNCc2ccccc2)CCCC1 | inconclusive: -30%
Cc1[nH]c2ccc(OC(F)(F)F)cc2c1CCNCc1cccc([N+](=O)[O-])c1 | active: -63.7%
CCCC(=O)N(C)C1=Nc2ccc(Cl)cc2C(c2ccccc2)=[N+]([O-])C1 | inconclusive: -32%
Cn1c(O)c(/C=N/NC(=O)c2ccncc2)c(=O)n(C)c1=S | inactive: 0%
CCC(C)N1CCN(C(=O)Cc2ccccc2)CC1 (stereo not given) | active: -64.5%
COc1cccc(-n2c(O)c(C=NCc3ccc4c(c3)OCO4)c(=O)[nH]c2=O)c1 | inconclusive: -34.5%
CC12CCC3c4ccc(OP(=O)(N5CC5)N5CC5)cc4CCC3C1CCC2=O (stereo not given) | inconclusive: -45.8%
CCOC(=O)c1c(N)n(Cc2ccco2)c2nc3ccccc3nc12 | inactive: -22.4%
COc1ccc(C2=NCC(=O)N(CC(=O)NCc3ccco3)c3sc4c(c32)CCCC4)cc1 | inconclusive: -37.2%
CN1C(=O)NC(=O)[C@]2(Cc3ccccc3N3CCN(c4ccccc4)CC32)C1=O (stereo not given in full) | inactive: -19.4%

Laid out differently: entries from further up.
Compound,"max response, negative = inhibition"
CC12CCCCC1=[N+]([O-])CN2O (stereo not given),active: -61.9%
COc1cccc(-n2c(O)c(C=NCc3ccc4c(c3)OCO4)c(=O)[nH]c2=O)c1,inconclusive: -34.5%
